According to article PMC6425864:

Key:
Test in all cases: peptide or protein array; customized MARCoNI array; a concentration series of each NR box peptide immobilised, incubated with 3 nM GR LBD in the absence of ligand (vehicle DMSO); detected with ALEXA488-conjugated anti-GST antibody; both purified
NRIP1_LxxLL500_488_510 = molecular target: T1, NRIP1_LxxLL500_488_510 (UniProt P48552)
T1 sequence (peptide): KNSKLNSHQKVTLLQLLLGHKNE

NRIP1_LxxLL713_700_722 = molecular target: T2, NRIP1_LxxLL713_700_722 (UniProt P48552)
T2 sequence (peptide): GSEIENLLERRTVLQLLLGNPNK

NRIP1_LxxLL936_924_946 = molecular target: T3, NRIP1_LxxLL936_924_946 (UniProt P48552)
T3 sequence (peptide): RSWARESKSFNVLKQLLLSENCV

NRIP1_LxxLL819_805_831 = molecular target: T4, NRIP1_LxxLL819_805_831 (UniProt P48552)
T4 sequence (peptide): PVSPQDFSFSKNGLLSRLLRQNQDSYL

ZNHI3_LxxLL101_89_111 = molecular target: T5, ZNHI3_LxxLL101_89_111 (UniProt Q15649)
T5 sequence (peptide): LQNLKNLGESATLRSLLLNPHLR

PRGC1_LxxLL144_130_155 = molecular target: T6, PRGC1_LxxLL144_130_155 (UniProt Q9UBK2)
T6 sequence (peptide): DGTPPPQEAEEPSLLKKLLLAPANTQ

NRIP1_LxxLL380_368_390 = molecular target: T7, NRIP1_LxxLL380_368_390 (UniProt P48552)
T7 sequence (peptide): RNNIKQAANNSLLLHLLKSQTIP

NRIP1_LxxLL21_8_30 = molecular target: T8, NRIP1_LxxLL21_8_30 (UniProt P48552)
T8 sequence (peptide): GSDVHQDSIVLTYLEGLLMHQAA

PPRB_LxxLL645_632_655 = molecular target: T9, PPRB_LxxLL645_632_655 (UniProt Q15648)
T9 sequence (peptide): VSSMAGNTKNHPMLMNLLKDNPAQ

[1] = molecular target: T10, NRIP1_LxxML1068_1055_1077 (UniProt P48552)
T10 sequence (peptide): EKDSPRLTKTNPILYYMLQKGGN

[2] = molecular target: T11, NRIP1_LxxLL266_253_275_C263S (UniProt P48552)
T11 sequence (peptide): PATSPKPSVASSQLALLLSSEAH

NRIP1_LxxLL185_173_195 = molecular target: T12, NRIP1_LxxLL185_173_195 (UniProt P48552)
T12 sequence (peptide): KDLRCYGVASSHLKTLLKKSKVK

Measured: binding

Purified Glucocorticoid Receptor Recombinant Human Protein, Ligand Binding Domain (domain or fragment)
binds: all assays above

These are yes or no findings as the source states them, for the method shown. Binding calls can cover weak binding; strength is not graded here.
